This assay concerns OVCAR8. The experiment in a line: cell count relative to DMSO vehicle (fold change); higher = more surviving senescent cells (less killing). Particulars: senescence inducer: cisplatin 10 µM 48 h, then 6 d recovery (CP senescent), exposure time 24 h.

Structures can show the parent of a compound that is named as a salt. ± gives the standard deviation of the averaged measurements. The list shows a part of the results. Repeats in this data set agree poorly, so a single value says little.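 Imaging of DAPI-stained nuclei was used to count cells; those without phalloidin-stained cytoplasm were treated as dead and excluded. Every well's count was divided by the median of same-plate vehicle wells, then averaged across two replicate plates.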

Take `S=P1(c2ccccc2)Nc2ccccc2O1` (stereo unspecified): the cell count by setting is: (compound dose 1 µM) 0.854 ± 0.07; (compound dose 5 µM) 0.666 ± 0.26.

For the compound `COc1cc2c(c(OC)c1OC)-c1ccc(OC)c(=O)cc1[C@@H](NC(C)=O)CC2` [Colchicine], the cell count is, setting by setting: (compound dose 1 µM) 0.798 ± 0.077; (compound dose 5 µM) 0.729 ± 0.018.

Regarding `CN(C)C(=O)OC1=C(c2cccc3ccccc23)Oc2ccccc2-n2cccc21`, the cell count is, setting by setting: (compound dose 1 µM) 0.948 ± 0.064; (compound dose 5 µM) 1.089 ± 0.005.

For the compound `CC1=CC(=O)[C@@H](O)[C@]2(C)[C@H]3[C@@H](O)[C@H](O)[C@]4(C)OC[C@@]35[C@@H](C[C@@H]12)OC(=O)[C@H](O)[C@]54O` [Bruceine D], the cell count is, setting by setting: (compound dose 1 µM) 0.971 ± 0.14; (compound dose 5 µM) 0.869 ± 0.42.

In turn, `O=C(O)c1nn(Cc2ccc(Cl)cc2Cl)c2ccccc12` returned a cell count (compound dose 1 µM) of 1.11 ± 0.13 and a cell count (compound dose 5 µM) of 0.618 ± 0.58.

On to `CCOC(=O)[C@H](Cc1ccc(F)cc1)NC(=O)[C@@H](N)Cc1ccc(N(CCCl)CCCl)cc1` [Melflufen (hydrochloride)], for which the cell count was determined as 0.634 ± 0.085 (compound dose 1 µM) and 0.093 ± 0.035 (compound dose 5 µM).

For the compound `CCN1CCN(C(=O)Cc2ccc(Nc3ncc(F)c(Nc4ccc(C(=O)Nc5ccccc5Cl)cc4)n3)cc2)CC1` [Aurora A Inhibitor I], the cell count (compound dose 1 µM) is 0.973 ± 0.052 and the cell count (compound dose 5 µM) worked out at 0.651 ± 0.18.

As to `CO[C@H]1C[C@H](O[C@H]2CC[C@]3(C)[C@H]4CC[C@]5(C)[C@@H](C6=CC(=O)OC6)CC[C@]5(O)[C@@H]4CC[C@]3(O)C2)O[C@H](C)[C@H]1O[C@@H]1O[C@H](CO)[C@@H](O)[C@H](O)[C@H]1O` [Periplocin], the cell count turned out to be 0.075 ± 0.014 (compound dose 1 µM) and 0.0485 ± 0.019 (compound dose 5 µM).

For the compound `N#Cc1cn([C@@H]2O[C@H](CO)[C@@H](O)[C@H]2O)c2ncnc(N)c12` [Toyocamycin], the cell count is, setting by setting: (compound dose 1 µM) 0.344 ± 0.12; (compound dose 5 µM) 0.126 ± 0.023.

With `C[C@@H]1CC[C@]2(NC1)O[C@H]1C[C@H]3[C@@H]4CC=C5C[C@@H](O)CC[C@]5(C)[C@H]4CC[C@]3(C)[C@H]1[C@@H]2C`, the cell count is 1.19 ± 0.14 (compound dose 1 µM) and 0.973 ± 0.2 (compound dose 5 µM).

Consider `Cc1ncc(C[n+]2csc(CCO)c2C)c(=O)[nH]1` [Oxythiamine], for which the cell count is 0.8105 ± 0.00071 (compound dose 1 µM) and 0.7435 ± 0.0035 (compound dose 5 µM).

With `Cn1c(COP(=O)(NCCBr)NCCBr)cnc1[N+](=O)[O-]` [Evofosfamide], the cell count stood at 1.02 ± 0.23 (compound dose 1 µM) and 0.92 ± 0.13 (compound dose 5 µM).

In the case of `C[C@H]1CC[C@]2(NC1)O[C@H]1C[C@H]3[C@@H]4CC[C@H]5C[C@@H](O[C@@H]6O[C@H](CO)[C@H](O[C@@H]7O[C@H](CO)[C@@H](O)[C@H](O[C@@H]8OC[C@@H](O)[C@H](O)[C@H]8O)[C@H]7O[C@@H]7O[C@H](CO)[C@@H](O)[C@H](O)[C@H]7O)[C@H](O)[C@H]6O)CC[C@]5(C)[C@H]4CC[C@]3(C)[C@H]1[C@@H]2C` [Tomatine], the cell count by setting is: (compound dose 1 µM) 0.13 ± 0.042; (compound dose 5 µM) 0.0135 ± 0.012.

`O=C1C2CCN(CC2)C1(CO)CO`: the cell count was 0.982 ± 0.17 (compound dose 1 µM) and 0.851 ± 0.095 (compound dose 5 µM).

As to `CC(C)[C@]12O[C@H]1[C@@H]1O[C@@]13[C@@]1(C)CCC4=C(COC4=O)[C@@H]1C[C@@H]1O[C@@]13C2=O` [Triptonide], the cell count reads like this: (compound dose 1 µM) 0.55 ± 0.15; (compound dose 5 µM) 0.428 ± 0.048.

On to `C[C@@]1(C(=O)O)CC[C@]2(C)CC[C@]3(C)C4=CC(=O)c5c(cc(O)c(O)c5C=O)[C@]4(C)CC[C@@]3(C)[C@@H]2C1` [Demethylzeylasteral], for which the cell count (compound dose 1 µM) was found to be 0.942 ± 0.013 and the cell count (compound dose 5 µM) is 0.921 ± 0.026.

Take `COc1c(C)c(O)cc2[o+]c(-c3ccccc3)ccc12.[O-][Cl+3]([O-])([O-])[O-]` [Dracorhodin perchlorate]: the cell count (compound dose 1 µM) is 1.06 ± 0.12 and the cell count (compound dose 5 µM) is 1.13 ± 0.041.

Turning to `C=C(CO)C(=O)O[C@H]1CC(=C)[C@@H]2C[C@H](O)C(=C)[C@@H]2[C@H]2OC(=O)C(=C)[C@@H]21` [Cynaropicrin], the cell count (compound dose 1 µM) was 0.625 ± 0.068 and the cell count (compound dose 5 µM) was 0.332 ± 0.11.

For the compound `COc1cc2c(cc1OC)-c1c(oc3c4c(ccc3c1=O)OC(C(C)C)C4)CO2` (stereo unspecified), the cell count (compound dose 1 µM) stood at 1.16 ± 0.49 and the cell count (compound dose 5 µM) was determined as 0.683 ± 0.16.

On to `O=c1[nH]c2ccc(Cl)cc2c(N[C@@H]2CN3CCC2CC3)c1-c1nc2ccccc2[nH]1`, for which the cell count amounted to 0.469 ± 0.09 (compound dose 1 µM) and 0.569 ± 0.13 (compound dose 5 µM).

Turning to `NCCCNCCSP(=O)(O)O`, the cell count is 1.03 ± 0.032 (compound dose 1 µM) and 1.01 ± 0.093 (compound dose 5 µM).

With `O=C1Nc2ccc3ncsc3c2/C1=C/c1cnc[nH]1`, the cell count runs as follows: (compound dose 1 µM) 1.05 ± 0.059; (compound dose 5 µM) 0.772 ± 0.011.

As to `C/C=C(\C)C(=O)O[C@H]1C[C@@H](OC(C)=O)[C@@]2(C(=O)OC)CO[C@H]3[C@@H](O)[C@@](C)([C@]45O[C@@]4(C)[C@H]4C[C@@H]5O[C@@H]5OC=C[C@@]54O)[C@H]4[C@]1(CO[C@]4(O)C(=O)OC)[C@@H]32`, the cell count (compound dose 1 µM) was determined as 1.12 ± 0.081 and the cell count (compound dose 5 µM) worked out at 1 ± 0.13.

In the case of `Cc1cc2c(C(C)C)c(O)c(O)c(C=O)c2c(O)c1-c1c(C)cc2c(C(C)C)c(O)c(O)c(C=O)c2c1O`, the cell count runs as follows: (compound dose 1 µM) 1.13 ± 0.073; (compound dose 5 µM) 0.723 ± 0.17.

In the case of `O=C1CCC[C@@H]2[C@H]3CCCN4CCC[C@@H](CN12)[C@@H]34` [Matrine], the cell count by setting is: (compound dose 1 µM) 0.897 ± 0.14; (compound dose 5 µM) 0.738 ± 0.11.

Take `CN[C@@H]1C[C@H]2O[C@@](C)([C@@H]1OC)n1c3ccccc3c3c4c(c5c6ccccc6n2c5c31)C(=O)NC4` [Staurosporine]: the cell count (compound dose 1 µM) was 0.0345 ± 0.011 and the cell count (compound dose 5 µM) amounted to 0.0235 ± 0.018.

Turning to `CC(=O)O[C@H]1[C@H]2O[C@]23[C@@H]2CC[C@@H]4C[C@@H](O)CC[C@]4(C)[C@H]2CC[C@]3(C)[C@H]1c1ccc(=O)oc1` [Cinobufagin], the cell count (compound dose 1 µM) is 0.01 ± 0.014 and the cell count (compound dose 5 µM) was 0.039 ± 0.021.

For `Cc1ccc(OCCn2c(C)c(C=C3C(=O)NC(=S)NC3=O)c3ccccc32)c(C)c1`, the cell count runs as follows: (compound dose 1 µM) 0.742 ± 0.14; (compound dose 5 µM) 0.684 ± 0.21.
